This is an account of results in article PMC5762521.

Chains of the proteins cited; added tags and fusions are not shown.
UniProt Q00613: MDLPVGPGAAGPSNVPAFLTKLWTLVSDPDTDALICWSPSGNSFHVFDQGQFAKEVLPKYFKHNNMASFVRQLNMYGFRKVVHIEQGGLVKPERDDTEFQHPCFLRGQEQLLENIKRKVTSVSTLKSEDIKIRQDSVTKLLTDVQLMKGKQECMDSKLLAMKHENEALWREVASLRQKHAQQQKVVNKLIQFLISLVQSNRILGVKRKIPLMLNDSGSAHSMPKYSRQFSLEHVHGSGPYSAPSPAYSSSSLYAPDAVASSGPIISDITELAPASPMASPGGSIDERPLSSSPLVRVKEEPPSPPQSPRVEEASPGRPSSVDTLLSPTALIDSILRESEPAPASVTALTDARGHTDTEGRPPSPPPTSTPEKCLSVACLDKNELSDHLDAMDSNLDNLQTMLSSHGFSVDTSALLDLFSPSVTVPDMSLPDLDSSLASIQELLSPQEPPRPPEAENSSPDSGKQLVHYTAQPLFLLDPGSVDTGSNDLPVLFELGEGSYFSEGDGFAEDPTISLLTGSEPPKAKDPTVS

The target in this assay is Heat shock transcription factor-1 (HSF-1) (human (endogenous in HCT-116)) (UniProt Q00613). As to the kind of experiment: affinity purification with mass spectrometry; HSF-1 immunoprecipitates from HCT-116 control cells and cells treated with 50 uM vitexin; 10% SDS-PAGE, silver stain; bands excised, trypsin digest, MALDI-TOF peptide mass fingerprinting (MASCOT).

No constants are given. Whether binding was seen depends on the method and setting. In cells and extracts the contact can be indirect. Here binding means that the protein was enriched with, or labelled near, the bait; the list need not be complete.

B1: Apolipoprotein L1 (ApoL1) (protein, UniProt O14791 28-398)
chain: EEAGARVQQNVPSGTDTGDPQSKPLGDWAAGTMDPESSIFIEDAIKYFKEKVSTQNLLLLLTDNEAWNGFVAAAELPRNEADELRKALDNLARQMIMKDKNWHDKGQQYRNWFLKEFPRLKSELEDNIRRLRALADGVQKVHKGTTIANVVSGSLSISSGILTLVGMGLAPFTEGGSLVLLEPGMELGITAALTGITSSTMDYGKKWWTQAQAHDLVIKSLDKLKEVREFLGENISNFLSLAGNTYQLTRGIGKDIRALRRARANLQSVPHASASRPRVTEPISAESGEQVERVNEPSILEMSRGVKLTDVAPVSFFLVLDVVYLVYESKHLHEGAKSETAEELKKVAQELEEKLNILNNNYKILQADQEL
As to B1, the binding entry is “binds”.
